In patent US20050256134A1, “Use of creatine analogues and creatine kinase modulators for the prevention and treatment of glucose metabolic disorders” (AVICENA GROUP, INC., priority 1995, published 2005):
This continues a long series; more values of the same kind are listed elsewhere.

Test system: terminal cancer patients
Experiment: Phase I/II open label dose escalation study, glucose levels, 3 hour continuous infusion
Assay type: in vivo, human
Procedure: Cyclocreatine was tested in humans in a phase I/II open label dose escalation study. […] Cyclocreatine was administered at doses that ranged from 10 mg/Kg to 100 mg/Kg. The schedule of administration of cyclocreatine is described in Table 4.
Cohorts of 3 patients were administered drug at each dose level, via a 3 hour continuous infusion in one liter volume of saline. The first week patients received cyclocreatine once, the second week patients received cyclocreatine twice, the third week three times, the fourth week four times, the fifth week five times. On weeks six and seven, no drug was administered to allow the drug to wash out. On week eight, cyclocreatine was given five times. The study included a total of 23 patients (18 male, 5 female) with a median age of 71 years (range 54-85). The patients had different types of malignancies. Eligibility requirements included patients who have failed standard therapy or for whom no therapy was available, normal organ function, have recovered from prior therapies, probability of survival of greater than three months. Reasons for exclusion included: major surgery, life threatening concurrent illness and CNS metastasis. Blood samples were collected at baseline and 1 day before and after the last weekly drug administration on days 1, 7, 9, 14, 17, 21, 25, 28, 33, 40, 47, 49, 54, 61, and 69. Glucose levels were determined for these collected blood samples. […] Not all patients experienced a significant drop in glucose although the trend was there. FIGS. 14 and 15 illustrate graphically individual patients' glucose levels upon treatment with 60 mg/Kg or 80 mg/Kg cyclocreatine. Patient (A) at the 80 mg/Kg dose was diabetic and had many serious complications due to their disease. […] It should be noted that an insufficient number of readings was made shortly after drug administration. It is interesting to note that several patients who were diabetic or had higher glucose levels than normal did respond to cyclocreatine, onen example being illustrated in FIG. 16.

NC1=NCCN1CC(=O)O [cyclocreatine] showed a Glucose (Ave, 10 mg/kg, Study Day 0) of 123 mg/dL, a Glucose (Ave, 10 mg/kg, Study Day 1) of 119 mg/dL and a Glucose (Ave, 10 mg/kg, Study Day 7) of 123 mg/dL. For the same compound, the Glucose (Ave, 10 mg/kg, Study Day 9) was 119 mg/dL, the Glucose (Ave, 10 mg/kg, Study Day 14) was 110 mg/dL and the Glucose (Ave, 10 mg/kg, Study Day 17) was 83 mg/dL. For the same compound, the Glucose (Ave, 10 mg/kg, Study Day 21) was 138 mg/dL, the Glucose (Ave, 10 mg/kg, Study Day 25) was 102 mg/dL and the Glucose (Ave, 10 mg/kg, Study Day 28) was 84 mg/dL. For the same compound, the Glucose (Ave, 10 mg/kg, Study Day 33) was 86 mg/dL, the Glucose (Ave, 10 mg/kg, Study Day 40) was 121 mg/dL and the Glucose (Ave, 10 mg/kg, Study Day 47) was 97 mg/dL. The Glucose (Ave, 10 mg/kg, Study Day 49) was 164 mg/dL, the Glucose (Ave, 10 mg/kg, Study Day 54) was 102 mg/dL and the Glucose (Ave, 10 mg/kg, Study Day 61) was 131 mg/dL. For the same compound, the Glucose (Ave, 10 mg/kg, Study Day 69) was 151 mg/dL, the Glucose (Ave, 20 mg/Kg, Study Day 0) was 120 mg/dL and the Glucose (Ave, 20 mg/Kg, Study Day 1) was 129 mg/dL. For the same compound, the Glucose (Ave, 20 mg/Kg, Study Day 7) was 110 mg/dL, the Glucose (Ave, 20 mg/Kg, Study Day 9) was 112 mg/dL and the Glucose (Ave, 20 mg/Kg, Study Day 14) was 144 mg/dL. For the same compound, the Glucose (Ave, 20 mg/Kg, Study Day 17) was 89 mg/dL, the Glucose (Ave, 20 mg/Kg, Study Day 21) was 128 mg/dL and the Glucose (Ave, 20 mg/Kg, Study Day 25) was 97 mg/dL. For the same compound, the Glucose (Ave, 20 mg/Kg, Study Day 28) was 127 mg/dL, the Glucose (Ave, 20 mg/Kg, Study Day 33) was 101 mg/dL and the Glucose (Ave, 20 mg/Kg, Study Day 40) was 112 mg/dL. The Glucose (Ave, 20 mg/Kg, Study Day 47) was 129 mg/dL, the Glucose (Ave, 20 mg/Kg, Study Day 49) was 126 mg/dL and the Glucose (Ave, 20 mg/Kg, Study Day 54) was 90 mg/dL. For the same compound, the Glucose (Ave, 20 mg/Kg, Study Day 61) was 101 mg/dL, the Glucose (Ave, 20 mg/Kg, Study Day 69) was 108 mg/dL and the Glucose (Ave, 60 mg/Kg, Study Day 0) was 116 mg/dL. The Glucose (Ave, 60 mg/Kg, Study Day 1) was 39 mg/dL, the Glucose (Ave, 60 mg/Kg, Study Day 9) was 91 mg/dL and the Glucose (Ave, 60 mg/Kg, Study Day 14) was 102 mg/dL. It also gave a Glucose (Ave, 60 mg/Kg, Study Day 17) of 36 mg/dL, a Glucose (Ave, 60 mg/Kg, Study Day 21) of 103 mg/dL and a Glucose (Ave, 60 mg/Kg, Study Day 25) of 78 mg/dL. It also gave a Glucose (Ave, 60 mg/Kg, Study Day 28) of 65 mg/dL, a Glucose (Ave, 60 mg/Kg, Study Day 33) of 99 mg/dL and a Glucose (Ave, 60 mg/Kg, Study Day 40) of 75 mg/dL. It also gave a Glucose (Ave, 60 mg/Kg, Study Day 47) of 119 mg/dL, a Glucose (Ave, 60 mg/Kg, Study Day 49) of 102 mg/dL and a Glucose (Ave, 60 mg/Kg, Study Day 54) of 72 mg/dL. The Glucose (Ave, 60 mg/Kg, Study Day 61) was 85 mg/dL, the Glucose (Ave, 60 mg/Kg, Study Day 69) was 127 mg/dL and the Glucose (Ave, 80 mg/Kg, Study Day 0) was 151 mg/dL. The Glucose (Ave, 80 mg/Kg, Study Day 1) was 73 mg/dL, the Glucose (Ave, 80 mg/Kg, Study Day 7) was 146 mg/dL and the Glucose (Ave, 80 mg/Kg, Study Day 9) was 170 mg/dL. It also gave a Glucose (Ave, 80 mg/Kg, Study Day 14) of 127 mg/dL, a Glucose (Ave, 80 mg/Kg, Study Day 17) of 134 mg/dL and a Glucose (Ave, 80 mg/Kg, Study Day 21) of 172 mg/dL. The Glucose (Ave, 80 mg/Kg, Study Day 25) was 207 mg/dL, the Glucose (Ave, 80 mg/Kg, Study Day 28) was 227 mg/dL and the Glucose (Ave, 80 mg/Kg, Study Day 33) was 206 mg/dL. The Glucose (Ave, 80 mg/Kg, Study Day 40) was 141 mg/dL, the Glucose (Ave, 80 mg/Kg, Study Day 47) was 77 mg/dL and the Glucose (Ave, 80 mg/Kg, Study Day 49) was 185 mg/dL. It also gave a Glucose (Ave, 80 mg/Kg, Study Day 54) of 252 mg/dL, a Glucose (Ave, 80 mg/Kg, Study Day 61) of 81 mg/dL and a Glucose (Ave, 80 mg/Kg, Study Day 69) of 81 mg/dL. It also gave a Glucose (Ave, 100 mg/Kg, Study Day 0) of 132 mg/dL, a Glucose (Ave, 100 mg/Kg, Study Day 1) of 141 mg/dL and a Glucose (Ave, 100 mg/Kg, Study Day 7) of 130 mg/dL. The Glucose (Ave, 100 mg/Kg, Study Day 9) was 130 mg/dL, the Glucose (Ave, 100 mg/Kg, Study Day 14) was 95 mg/dL and the Glucose (Ave, 100 mg/Kg, Study Day 17) was 133 mg/dL. It also gave a Glucose (Ave, 100 mg/Kg, Study Day 21) of 101 mg/dL, a Glucose (Ave, 100 mg/Kg, Study Day 25) of 125 mg/dL and a Glucose (Ave, 100 mg/Kg, Study Day 28) of 153 mg/dL. The Glucose (Ave, 100 mg/Kg, Study Day 33) was 170 mg/dL, the Glucose (Ave, 100 mg/Kg, Study Day 40) was 130 mg/dL and the Glucose (Ave, 100 mg/Kg, Study Day 47) was 111 mg/dL. It also gave a Glucose (Ave, 100 mg/Kg, Study Day 49) of 98 mg/dL, a Glucose (Ave, 100 mg/Kg, Study Day 54) of 81 mg/dL and a Glucose (Ave, 100 mg/Kg, Study Day 61) of 104 mg/dL. For the same compound, the Glucose (Ave, 100 mg/Kg, Study Day 69) was 92 mg/dL, the Glucose (Patient 1, 10 mg/kg, Study Day 0) was 180 mg/dL and the Glucose (Patient 1, 10 mg/kg, Study Day 7) was 229 mg/dL. The Glucose (Patient 1, 10 mg/kg, Study Day 9) was 170 mg/dL, the Glucose (Patient 1, 10 mg/kg, Study Day 17) was 67 mg/dL and the Glucose (Patient 1, 10 mg/kg, Study Day 21) was 82 mg/dL. The Glucose (Patient 1, 10 mg/kg, Study Day 25) was 82 mg/dL, the Glucose (Patient 1, 10 mg/kg, Study Day 33) was 84 mg/dL and the Glucose (Patient 1, 10 mg/kg, Study Day 40) was 136 mg/dL. It also gave a Glucose (Patient 1, 10 mg/kg, Study Day 47) of 58 mg/dL, a Glucose (Patient 1, 10 mg/kg, Study Day 49) of 147 mg/dL and a Glucose (Patient 1, 10 mg/kg, Study Day 54) of 180 mg/dL. It also gave a Glucose (Patient 1, 10 mg/kg, Study Day 61) of 125 mg/dL, a Glucose (Patient 1, 10 mg/kg, Study Day 69) of 104 mg/dL and a Glucose (Patient 2, 1, 10 mg/kg, Study Day 0) of 99 mg/dL. The Glucose (Patient 2, 1, 10 mg/kg, Study Day 1) was 78 mg/dL, the Glucose (Patient 2, 1, 10 mg/kg, Study Day 7) was 85 mg/dL and the Glucose (Patient 2, 1, 10 mg/kg, Study Day 9) was 83 mg/dL. The Glucose (Patient 2, 1, 10 mg/kg, Study Day 14) was 81 mg/dL.
